What all share (test): two-hybrid; systematic, reciprocal; LexA DNA-binding domain (pMM5) and Gal4 activation domain (pMM6) fusions in mated budding yeast SGY37 and YPH500; X-Gal overlay, scanned after 16 hr
Assay [1] has as its target T1, Schizosaccharomyces pombe Vps36 (ESCRT-II), yeast two-hybrid fusion (Schizosaccharomyces pombe) (UniProt O43038).
T1 sequence: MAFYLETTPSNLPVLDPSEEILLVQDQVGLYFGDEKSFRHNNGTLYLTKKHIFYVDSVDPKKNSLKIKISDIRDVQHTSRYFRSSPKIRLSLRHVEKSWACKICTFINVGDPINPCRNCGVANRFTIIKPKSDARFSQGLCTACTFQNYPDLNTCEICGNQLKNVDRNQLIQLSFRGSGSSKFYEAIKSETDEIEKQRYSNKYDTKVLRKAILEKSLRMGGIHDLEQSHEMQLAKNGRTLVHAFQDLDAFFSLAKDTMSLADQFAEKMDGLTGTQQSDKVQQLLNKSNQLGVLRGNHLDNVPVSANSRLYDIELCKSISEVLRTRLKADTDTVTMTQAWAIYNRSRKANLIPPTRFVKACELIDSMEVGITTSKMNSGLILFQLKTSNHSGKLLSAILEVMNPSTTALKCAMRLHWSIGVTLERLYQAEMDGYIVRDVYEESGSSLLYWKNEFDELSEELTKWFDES

Assay [2] deals with T2, Schizosaccharomyces pombe Did4 (ESCRT-III), yeast two-hybrid fusion (Schizosaccharomyces pombe) (UniProt O14177).
T2 sequence: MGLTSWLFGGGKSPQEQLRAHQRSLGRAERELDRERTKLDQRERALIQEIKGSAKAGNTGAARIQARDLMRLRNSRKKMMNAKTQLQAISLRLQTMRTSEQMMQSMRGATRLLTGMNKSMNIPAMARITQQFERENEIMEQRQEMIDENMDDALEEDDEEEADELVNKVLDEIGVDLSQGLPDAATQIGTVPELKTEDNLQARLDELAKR

Assay [3] addresses T3, Schizosaccharomyces pombe Vps28 (ESCRT-I), yeast two-hybrid fusion (Schizosaccharomyces pombe) (UniProt O13872).
T3 sequence: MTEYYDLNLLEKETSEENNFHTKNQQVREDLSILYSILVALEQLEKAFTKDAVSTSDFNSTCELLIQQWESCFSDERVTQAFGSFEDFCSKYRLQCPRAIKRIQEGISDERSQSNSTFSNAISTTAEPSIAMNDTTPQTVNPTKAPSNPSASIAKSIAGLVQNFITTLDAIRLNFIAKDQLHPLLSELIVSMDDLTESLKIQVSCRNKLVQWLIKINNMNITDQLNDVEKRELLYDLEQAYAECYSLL

In assay [4] the target is T4, Schizosaccharomyces pombe Vps25 (ESCRT-II), yeast two-hybrid fusion (Schizosaccharomyces pombe) (UniProt O74967).
T4 sequence: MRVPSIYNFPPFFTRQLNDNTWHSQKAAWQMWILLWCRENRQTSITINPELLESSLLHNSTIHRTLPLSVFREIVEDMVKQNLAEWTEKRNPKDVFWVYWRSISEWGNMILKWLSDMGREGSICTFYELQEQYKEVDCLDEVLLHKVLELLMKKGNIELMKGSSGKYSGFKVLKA

Results are given in words; binding and its absence hold for the method and conditions named. Some results given as binding are weak or reduced against the parent protein; the word gives no strength. Where a sequence is shown, tags or fusion partners need not be part of it.

B1: Schizosaccharomyces pombe Vps28 (ESCRT-I), yeast two-hybrid fusion (protein, UniProt O13872 1-248)
chain: MTEYYDLNLLEKETSEENNFHTKNQQVREDLSILYSILVALEQLEKAFTKDAVSTSDFNSTCELLIQQWESCFSDERVTQAFGSFEDFCSKYRLQCPRAIKRIQEGISDERSQSNSTFSNAISTTAEPSIAMNDTTPQTVNPTKAPSNPSASIAKSIAGLVQNFITTLDAIRLNFIAKDQLHPLLSELIVSMDDLTESLKIQVSCRNKLVQWLIKINNMNITDQLNDVEKRELLYDLEQAYAECYSLL
In the case of B1, the binding result in assay [1] is reported as “binds”.

B2: Schizosaccharomyces pombe Vps24 (ESCRT-III), yeast two-hybrid fusion (protein, UniProt O14296 1-231)
chain: MQTVRSYFFGPTPQEQNRKWQSIIRKEQRQLDRQVYHLKAGRKKAEVQLKQLAKQSDITNMRILAKEIARANRHGKRLAESKALLGSLSLQLNDQMAMLKIQGTMQSSTKIMQDVSSLIRLPQLSETMRNLSMELTKAGVLEEMRDEMFLPVEDDEELMDLADEDEEVQEILTKYNVIPAPSEKAADAATHREQSLKQALPSLSNGIAKDSTEIDEEQLLDIRDKLDALKS
For the molecule B2, the binding result in assay [2] is recorded as “binds”.

B3: Schizosaccharomyces pombe Sst6 (ESCRT-I), yeast two-hybrid fusion (protein, UniProt Q7Z992 1-487)
chain: MSDHAINEHPSRILNTIEKIRFWKNGLAEELELLFRKQCEDTFTLQAINIEVDTQDENKIEEVRIYLSTPAFDKTILTSACITVRSYYPSQPPIVQLLDEKGGKHKYTSLLLQLWKNERSVFNIYRLVQALIKQDFEREHTSPPELPTKLVNTIEKLKVKEENEAPPVIPAKPFSSSSEQHFRKVPALPSKLPPKPLKITANSSLGQETNSNSSSFQSTLFSLNTAPFSATSQQLVHDSVSLRRPSSNIPAQKPIPPKPEQNEIIITKDTPSLKDKYSKPALLPQKPKVSKGQIVQQVSVFSTGKKIESQSLLNLIDTDIETPLKGSSELLYSEDFKPNVDPVKIQQILHKQNKIIEEKWISQIRISKNLEVKQRLLDQERHALETLAKNIENNRFILGKRRRKAREALQKLDNLKDLSVQELFIIPSERELKYYELKRKDEKLDEGIRALNQALHHESIMPASWLKGIKLLARQQFLIRDEMLQYS
With B3, the binding result in assay [3] is given as “binds”.

B4: Schizosaccharomyces pombe Vps20 (ESCRT-III), yeast two-hybrid fusion (protein, UniProt O94318 1-226)
chain: MGVNSSKINDKDRSILSIKEQRDKLLRYSKRLEKIEQLEIDIARKCLRDSDKRGALRALKAKKLYSGLITQTYGQLGNIEQLLSTIEFTLIQKDVMFGLQEGTNLIRQLQADMPLERVGRICNDRDEAMSYVDEVNDMLQGRMSRDQEDEIQEELDSLIREQEDEKVKDLEKPGFTPSTGVDVLPSVPLKNAIPSLDESFPKAASVSNTSSAVVIDEELRKDPVLG
For B4, in assay [4], the binding result is “binds”.

B5: Schizosaccharomyces pombe Vps36 (ESCRT-II), yeast two-hybrid fusion (protein, UniProt O43038 1-467)
chain: MAFYLETTPSNLPVLDPSEEILLVQDQVGLYFGDEKSFRHNNGTLYLTKKHIFYVDSVDPKKNSLKIKISDIRDVQHTSRYFRSSPKIRLSLRHVEKSWACKICTFINVGDPINPCRNCGVANRFTIIKPKSDARFSQGLCTACTFQNYPDLNTCEICGNQLKNVDRNQLIQLSFRGSGSSKFYEAIKSETDEIEKQRYSNKYDTKVLRKAILEKSLRMGGIHDLEQSHEMQLAKNGRTLVHAFQDLDAFFSLAKDTMSLADQFAEKMDGLTGTQQSDKVQQLLNKSNQLGVLRGNHLDNVPVSANSRLYDIELCKSISEVLRTRLKADTDTVTMTQAWAIYNRSRKANLIPPTRFVKACELIDSMEVGITTSKMNSGLILFQLKTSNHSGKLLSAILEVMNPSTTALKCAMRLHWSIGVTLERLYQAEMDGYIVRDVYEESGSSLLYWKNEFDELSEELTKWFDES
Regarding B5, the binding result in assay [4] was “binds”.

Values taken from paper PMC9192718.
